In patent US7179650:
No constants are given. Whether binding was seen depends on the method and setting. Some entries that bind do so weakly or less than the wild type.

Sequences of proteins named here, by UniProt entry; tags and fusion partners are left off. Residues count along the entry.
UniProt P19438, residues 355-455: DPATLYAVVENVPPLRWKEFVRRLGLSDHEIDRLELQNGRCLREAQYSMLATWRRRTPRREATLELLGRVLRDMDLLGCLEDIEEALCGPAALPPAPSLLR
UniProt P63279: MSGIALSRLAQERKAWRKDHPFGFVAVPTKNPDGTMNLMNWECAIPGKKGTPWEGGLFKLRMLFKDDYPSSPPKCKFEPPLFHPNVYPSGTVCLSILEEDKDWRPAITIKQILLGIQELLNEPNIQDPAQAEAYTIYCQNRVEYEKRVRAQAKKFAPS

How the values were obtained:
[1] = biological target: In vitro translated sentrin-1 (human); assay: precipitation on glutathione-Sepharose beads, autoradiography
[2] = biological target: In vitro translated sentrin-1 (human); assay: precipitation on glutathione-Sepharose beads, autoradiography (FIG. 9)
[3] = biological target: TNFR1 wt (death domain construct, yeast two-hybrid) (UniProt P19438); assay: yeast two-hybrid
[4] = biological target: TNFR1 wt (death domain construct, yeast two-hybrid) (UniProt P19438); assay: yeast two-hybrid (FIG. 1A)

Row | binding [1] | binding [2] | Substance | binding [3] | binding [4]
1 | binds | binds | GST-Ubc9 fusion protein (from UniProt P63279 1-158) (enzyme) | – | –
2 | – | – | Sentrin-1 (SEQ ID NO:2) fused to the Gal4 activation-domain (from UniProt A7WLH8 1-101) | binds | binds
